# Test results from the supplement of paper PMC12823440, “Inhibitors supercharge kinase turnover through native proteolytic circuits” (Nature, 2025).
# The chains behind the UniProt entries cited, without tags or fusion partners. Where a name states a change or a piece, a line headed by the entry shows the natural chain unless it says otherwise.
# UniProt P07949, whole entry, looked up: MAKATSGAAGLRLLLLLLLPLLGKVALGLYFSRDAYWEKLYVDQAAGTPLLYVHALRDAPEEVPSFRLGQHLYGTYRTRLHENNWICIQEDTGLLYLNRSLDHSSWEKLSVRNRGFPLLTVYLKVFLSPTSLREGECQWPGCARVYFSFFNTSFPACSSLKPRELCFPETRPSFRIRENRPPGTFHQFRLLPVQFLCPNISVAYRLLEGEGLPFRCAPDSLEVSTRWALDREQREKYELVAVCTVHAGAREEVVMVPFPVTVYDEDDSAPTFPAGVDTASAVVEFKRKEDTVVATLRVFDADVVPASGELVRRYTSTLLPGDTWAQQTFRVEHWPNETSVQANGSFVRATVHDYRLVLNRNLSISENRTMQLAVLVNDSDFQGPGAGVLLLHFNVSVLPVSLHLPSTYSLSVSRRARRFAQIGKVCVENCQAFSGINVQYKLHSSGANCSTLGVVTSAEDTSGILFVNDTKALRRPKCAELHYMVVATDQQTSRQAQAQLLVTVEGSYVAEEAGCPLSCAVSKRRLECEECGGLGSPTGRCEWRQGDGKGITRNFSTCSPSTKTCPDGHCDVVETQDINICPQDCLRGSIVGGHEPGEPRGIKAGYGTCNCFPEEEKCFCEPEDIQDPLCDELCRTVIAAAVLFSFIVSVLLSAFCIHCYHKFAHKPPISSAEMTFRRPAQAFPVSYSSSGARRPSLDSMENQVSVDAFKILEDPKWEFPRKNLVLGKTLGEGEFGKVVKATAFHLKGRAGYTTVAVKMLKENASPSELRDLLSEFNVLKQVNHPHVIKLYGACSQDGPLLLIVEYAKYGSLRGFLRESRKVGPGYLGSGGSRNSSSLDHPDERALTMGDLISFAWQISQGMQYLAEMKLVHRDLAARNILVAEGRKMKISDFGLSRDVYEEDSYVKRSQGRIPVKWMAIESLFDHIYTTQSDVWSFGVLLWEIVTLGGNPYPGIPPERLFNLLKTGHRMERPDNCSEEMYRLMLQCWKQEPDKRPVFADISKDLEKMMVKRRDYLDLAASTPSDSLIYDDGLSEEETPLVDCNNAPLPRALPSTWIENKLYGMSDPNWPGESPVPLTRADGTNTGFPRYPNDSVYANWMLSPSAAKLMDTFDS
# UniProt P07949, whole entry M918T, looked up: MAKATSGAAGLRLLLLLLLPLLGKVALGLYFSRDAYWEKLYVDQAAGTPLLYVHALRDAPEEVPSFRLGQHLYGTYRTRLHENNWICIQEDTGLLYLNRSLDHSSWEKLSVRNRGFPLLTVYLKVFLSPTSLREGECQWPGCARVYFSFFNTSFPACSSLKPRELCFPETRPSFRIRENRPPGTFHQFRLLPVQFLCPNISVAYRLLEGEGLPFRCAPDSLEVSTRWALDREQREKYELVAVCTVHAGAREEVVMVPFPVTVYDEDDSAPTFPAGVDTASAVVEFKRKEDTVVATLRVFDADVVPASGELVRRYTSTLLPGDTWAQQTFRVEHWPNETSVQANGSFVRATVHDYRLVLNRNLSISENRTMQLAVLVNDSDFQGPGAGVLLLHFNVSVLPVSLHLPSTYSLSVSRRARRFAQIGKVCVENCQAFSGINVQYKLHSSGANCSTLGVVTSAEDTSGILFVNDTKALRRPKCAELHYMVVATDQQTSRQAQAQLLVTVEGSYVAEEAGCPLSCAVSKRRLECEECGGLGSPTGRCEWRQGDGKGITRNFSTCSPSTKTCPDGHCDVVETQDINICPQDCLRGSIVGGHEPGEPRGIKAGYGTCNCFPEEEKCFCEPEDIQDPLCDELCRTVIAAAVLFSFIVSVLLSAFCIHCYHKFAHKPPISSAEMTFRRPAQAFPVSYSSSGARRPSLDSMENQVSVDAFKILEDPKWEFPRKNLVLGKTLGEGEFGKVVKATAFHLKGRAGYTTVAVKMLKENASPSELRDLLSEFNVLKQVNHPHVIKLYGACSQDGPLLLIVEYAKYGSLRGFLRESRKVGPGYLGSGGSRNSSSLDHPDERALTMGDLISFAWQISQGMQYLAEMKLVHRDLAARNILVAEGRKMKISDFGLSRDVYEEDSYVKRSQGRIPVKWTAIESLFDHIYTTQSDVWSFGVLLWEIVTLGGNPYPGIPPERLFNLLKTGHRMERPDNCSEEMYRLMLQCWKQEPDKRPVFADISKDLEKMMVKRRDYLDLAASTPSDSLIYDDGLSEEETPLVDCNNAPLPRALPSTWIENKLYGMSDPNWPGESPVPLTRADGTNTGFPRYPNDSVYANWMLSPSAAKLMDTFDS
# UniProt Q13546: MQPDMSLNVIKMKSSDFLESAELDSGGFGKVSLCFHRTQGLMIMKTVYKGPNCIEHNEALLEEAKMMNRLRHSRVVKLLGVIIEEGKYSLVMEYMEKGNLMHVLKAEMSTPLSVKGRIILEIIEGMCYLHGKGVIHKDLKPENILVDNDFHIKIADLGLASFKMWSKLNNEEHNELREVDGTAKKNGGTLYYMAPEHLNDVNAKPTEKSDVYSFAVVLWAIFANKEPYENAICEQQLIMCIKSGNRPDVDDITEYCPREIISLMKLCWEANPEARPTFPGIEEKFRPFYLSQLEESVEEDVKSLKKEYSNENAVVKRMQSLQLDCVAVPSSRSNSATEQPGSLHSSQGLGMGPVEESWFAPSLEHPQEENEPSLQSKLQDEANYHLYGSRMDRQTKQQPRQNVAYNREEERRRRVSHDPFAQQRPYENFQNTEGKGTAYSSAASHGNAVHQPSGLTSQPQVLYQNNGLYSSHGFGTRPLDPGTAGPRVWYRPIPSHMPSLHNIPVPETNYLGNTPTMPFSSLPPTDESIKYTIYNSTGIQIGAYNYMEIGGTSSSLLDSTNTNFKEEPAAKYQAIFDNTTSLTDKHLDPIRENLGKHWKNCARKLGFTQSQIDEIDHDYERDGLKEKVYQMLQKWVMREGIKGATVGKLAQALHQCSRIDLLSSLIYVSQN
# UniProt Q01974, whole entry: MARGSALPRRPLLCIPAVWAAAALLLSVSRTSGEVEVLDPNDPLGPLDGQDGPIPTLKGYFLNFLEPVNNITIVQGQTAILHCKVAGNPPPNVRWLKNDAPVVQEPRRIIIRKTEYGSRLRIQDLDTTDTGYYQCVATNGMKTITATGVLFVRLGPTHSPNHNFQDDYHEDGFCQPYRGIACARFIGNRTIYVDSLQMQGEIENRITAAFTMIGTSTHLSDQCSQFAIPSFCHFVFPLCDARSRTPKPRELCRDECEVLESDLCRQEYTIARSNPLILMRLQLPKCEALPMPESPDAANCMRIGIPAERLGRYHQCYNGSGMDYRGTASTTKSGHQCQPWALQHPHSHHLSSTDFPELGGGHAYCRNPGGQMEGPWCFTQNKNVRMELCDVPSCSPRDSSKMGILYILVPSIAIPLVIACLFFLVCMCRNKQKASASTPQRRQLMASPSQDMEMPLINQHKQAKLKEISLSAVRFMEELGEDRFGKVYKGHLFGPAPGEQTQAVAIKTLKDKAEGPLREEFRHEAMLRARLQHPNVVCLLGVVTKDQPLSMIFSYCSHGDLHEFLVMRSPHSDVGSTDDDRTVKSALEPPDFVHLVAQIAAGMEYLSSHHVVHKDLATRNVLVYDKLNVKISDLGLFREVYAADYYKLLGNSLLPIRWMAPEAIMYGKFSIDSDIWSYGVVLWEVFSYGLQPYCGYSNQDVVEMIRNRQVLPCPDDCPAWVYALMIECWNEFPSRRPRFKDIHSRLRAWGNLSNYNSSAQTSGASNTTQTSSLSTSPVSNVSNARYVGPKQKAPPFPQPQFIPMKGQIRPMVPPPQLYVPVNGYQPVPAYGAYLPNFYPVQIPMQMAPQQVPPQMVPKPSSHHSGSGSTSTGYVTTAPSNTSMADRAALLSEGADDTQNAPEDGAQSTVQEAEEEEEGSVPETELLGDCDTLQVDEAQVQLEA
# UniProt Q15208: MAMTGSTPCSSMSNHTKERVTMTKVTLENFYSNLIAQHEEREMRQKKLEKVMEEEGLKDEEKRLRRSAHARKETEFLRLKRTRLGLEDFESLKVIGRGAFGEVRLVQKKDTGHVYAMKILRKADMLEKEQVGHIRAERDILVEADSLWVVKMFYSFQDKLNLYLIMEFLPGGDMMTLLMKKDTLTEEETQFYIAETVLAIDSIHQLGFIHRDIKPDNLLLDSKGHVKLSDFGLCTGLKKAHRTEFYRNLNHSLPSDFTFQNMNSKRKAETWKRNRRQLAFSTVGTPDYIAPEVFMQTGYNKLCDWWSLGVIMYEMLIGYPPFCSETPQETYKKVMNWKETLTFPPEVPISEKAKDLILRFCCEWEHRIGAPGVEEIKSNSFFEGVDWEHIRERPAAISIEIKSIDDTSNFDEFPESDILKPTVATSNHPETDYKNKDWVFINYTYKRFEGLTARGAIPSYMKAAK
# UniProt P07947, whole entry, looked up: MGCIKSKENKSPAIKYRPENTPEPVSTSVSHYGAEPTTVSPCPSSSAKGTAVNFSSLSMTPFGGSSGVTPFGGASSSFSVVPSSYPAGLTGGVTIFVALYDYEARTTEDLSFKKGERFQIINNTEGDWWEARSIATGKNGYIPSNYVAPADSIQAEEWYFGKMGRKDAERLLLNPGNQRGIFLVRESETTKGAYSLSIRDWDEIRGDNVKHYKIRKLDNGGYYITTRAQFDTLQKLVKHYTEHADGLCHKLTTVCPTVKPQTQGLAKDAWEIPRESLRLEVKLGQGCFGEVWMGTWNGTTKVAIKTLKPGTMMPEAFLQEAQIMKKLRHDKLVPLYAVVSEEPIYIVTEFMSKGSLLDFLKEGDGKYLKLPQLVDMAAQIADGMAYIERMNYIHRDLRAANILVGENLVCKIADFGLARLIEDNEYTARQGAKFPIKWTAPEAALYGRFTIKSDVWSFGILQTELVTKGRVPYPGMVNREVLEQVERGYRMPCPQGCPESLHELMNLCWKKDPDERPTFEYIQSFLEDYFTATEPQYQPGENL
# UniProt P00519, whole entry: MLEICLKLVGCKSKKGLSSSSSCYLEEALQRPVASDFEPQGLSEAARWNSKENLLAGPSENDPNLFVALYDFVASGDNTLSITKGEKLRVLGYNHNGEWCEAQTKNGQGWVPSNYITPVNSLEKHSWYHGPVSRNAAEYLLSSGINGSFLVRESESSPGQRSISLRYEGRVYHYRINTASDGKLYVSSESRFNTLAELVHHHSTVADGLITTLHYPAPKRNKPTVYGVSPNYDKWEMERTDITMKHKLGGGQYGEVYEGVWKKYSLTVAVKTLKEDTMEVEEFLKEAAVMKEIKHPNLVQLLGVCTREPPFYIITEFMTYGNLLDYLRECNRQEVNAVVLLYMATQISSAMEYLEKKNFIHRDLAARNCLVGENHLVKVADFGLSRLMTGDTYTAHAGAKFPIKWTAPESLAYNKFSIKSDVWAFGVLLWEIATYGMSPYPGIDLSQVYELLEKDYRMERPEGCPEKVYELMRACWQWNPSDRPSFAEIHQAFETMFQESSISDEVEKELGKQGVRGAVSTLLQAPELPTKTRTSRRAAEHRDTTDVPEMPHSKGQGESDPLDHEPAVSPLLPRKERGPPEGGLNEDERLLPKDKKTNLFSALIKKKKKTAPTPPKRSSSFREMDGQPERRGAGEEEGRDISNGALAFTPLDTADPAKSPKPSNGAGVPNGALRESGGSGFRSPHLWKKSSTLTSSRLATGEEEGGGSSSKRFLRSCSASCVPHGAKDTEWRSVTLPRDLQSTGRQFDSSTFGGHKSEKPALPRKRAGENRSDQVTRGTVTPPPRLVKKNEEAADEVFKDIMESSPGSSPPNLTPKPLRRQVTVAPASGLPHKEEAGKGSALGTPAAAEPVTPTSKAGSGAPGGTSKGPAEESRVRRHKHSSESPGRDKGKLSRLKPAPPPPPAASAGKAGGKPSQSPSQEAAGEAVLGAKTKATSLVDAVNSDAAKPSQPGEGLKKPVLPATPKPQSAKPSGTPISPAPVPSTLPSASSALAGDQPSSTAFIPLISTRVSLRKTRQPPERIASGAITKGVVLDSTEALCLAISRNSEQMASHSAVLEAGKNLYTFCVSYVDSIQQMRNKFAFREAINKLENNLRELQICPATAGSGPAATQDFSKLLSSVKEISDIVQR
# UniProt P31749: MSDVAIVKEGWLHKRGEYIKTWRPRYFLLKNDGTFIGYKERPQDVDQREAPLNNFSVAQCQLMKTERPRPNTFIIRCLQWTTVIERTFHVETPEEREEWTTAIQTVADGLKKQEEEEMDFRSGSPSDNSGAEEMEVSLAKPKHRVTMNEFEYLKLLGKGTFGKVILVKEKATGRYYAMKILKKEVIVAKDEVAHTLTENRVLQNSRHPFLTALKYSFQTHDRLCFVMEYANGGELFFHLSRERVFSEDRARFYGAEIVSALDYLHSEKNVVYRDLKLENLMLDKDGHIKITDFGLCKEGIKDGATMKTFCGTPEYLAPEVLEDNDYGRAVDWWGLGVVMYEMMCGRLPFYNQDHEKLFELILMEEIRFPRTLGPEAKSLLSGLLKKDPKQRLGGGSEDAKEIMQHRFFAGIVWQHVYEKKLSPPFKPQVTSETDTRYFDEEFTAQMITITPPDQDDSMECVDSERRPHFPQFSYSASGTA
# The other results are listed elsewhere or left out. The calls rarely recur for the same compound in another form.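 In K562 cells expressing nanoluciferase-fused kinases, luminescence was recorded at 4 h intervals between 2 and 18 h, normalized as percent of control with DMSO at 100% and a positive control at 0%. A significant (2 sigma) signal drop marks a time point as decreased. The authors' rule for a hit is not shown and takes in more than the number of time points.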
# Assays:
# Settings in all cases: K562; 2-18 h
# [1] = biological target: RET (UniProt P07949); assay: kinase-Nluc reporter destabilization hit call (1 = scored as downregulated) (binary); higher = compound decreases kinase abundance
# [2] = biological target: RET_M918T (clone: RET_mut) (UniProt P07949); assay: as above
# [3] = biological target: RIOK1 (UniProt Q9BRS2); assay: as above
# [4] = biological target: RIPK1 (UniProt Q13546); assay: as above
# [5] = biological target: RIPK2 (UniProt O43353); assay: as above
# [6] = biological target: ROR2 (UniProt Q01974); assay: as above
# [7] = biological target: RPS6KA1 (UniProt Q15418); assay: as above
# [8] = biological target: SPHK1 (UniProt Q9NYA1); assay: as above
# [9] = biological target: SRC (UniProt P12931); assay: as above
# [10] = biological target: STK24 (UniProt Q9Y6E0); assay: as above
# [11] = biological target: STK38 (UniProt Q15208); assay: as above
# [12] = biological target: SYK (UniProt P43405); assay: as above
# [13] = biological target: TEC (UniProt P42680); assay: as above
# [14] = biological target: TYK2 (UniProt P29597); assay: as above
# [15] = biological target: ULK3 (UniProt Q6PHR2); assay: as above
# [16] = biological target: YES1 (UniProt P07947); assay: as above
# [17] = biological target: ZAK (UniProt Q9NYL2); assay: as above
# [18] = biological target: ZAP70 (UniProt P43403); assay: as above
# [19] = biological target: ABL1 (UniProt P00519); assay: number of time points (of 5) at which kinase-Nluc abundance scored as decreased, DMSO-normalised (count); higher = more persistent destabilization
# [20] = biological target: AKT1 (UniProt P31749); assay: as above
SMILES,kinase-Nluc reporter destabilization hit call [1],kinase-Nluc reporter destabilization hit call [2],kinase-Nluc reporter destabilization hit call [3],kinase-Nluc reporter destabilization hit call [4],kinase-Nluc reporter destabilization hit call [5],kinase-Nluc reporter destabilization hit call [6],kinase-Nluc reporter destabilization hit call [7],kinase-Nluc reporter destabilization hit call [8],kinase-Nluc reporter destabilization hit call [9],kinase-Nluc reporter destabilization hit call [10],kinase-Nluc reporter destabilization hit call [11],kinase-Nluc reporter destabilization hit call [12],kinase-Nluc reporter destabilization hit call [13],kinase-Nluc reporter destabilization hit call [14],kinase-Nluc reporter destabilization hit call [15],kinase-Nluc reporter destabilization hit call [16],kinase-Nluc reporter destabilization hit call [17],kinase-Nluc reporter destabilization hit call [18],number of time points [19],number of time points [20]
CN1CCC(c2ccccc2CC(C)(C)Nc2nc(N3CCOCC3)nc(-n3c(S(C)(=O)=O)nc4ccccc43)n2)CC1 (10 µM),inactive: 0,inactive: 0,inactive: 0,inactive: 0,inactive: 0,inactive: 0,inactive: 0,inactive: 0,inactive: 0,inactive: 0,inactive: 0,inactive: 0,inactive: 0,inactive: 0,inactive: 0,inactive: 0,inactive: 0,inactive: 0,0,0
CC(C)n1cnnc1-c1cccc(NC(=O)c2cc3ccc(F)cc3[nH]2)n1 (2.5 µM),inactive: 0,inactive: 0,inactive: 0,inactive: 0,inactive: 0,inactive: 0,inactive: 0,inactive: 0,inactive: 0,inactive: 0,inactive: 0,inactive: 0,inactive: 0,inactive: 0,inactive: 0,inactive: 0,inactive: 0,inactive: 0,4,0
O=c1[nH]nc(Sc2ncc([N+](=O)[O-])s2)n1-c1ccc2c(c1)OCCO2 (2.5 µM),inactive: 0,inactive: 0,inactive: 0,inactive: 0,inactive: 0,inactive: 0,inactive: 0,inactive: 0,inactive: 0,inactive: 0,inactive: 0,inactive: 0,inactive: 0,inactive: 0,inactive: 0,inactive: 0,inactive: 0,inactive: 0,0,0
Oc1ccc2ccccc2c1SSc1c(O)ccc2ccccc12 (10 µM),inactive: 0,inactive: 0,inactive: 0,inactive: 0,inactive: 0,inactive: 0,inactive: 0,inactive: 0,inactive: 0,inactive: 0,inactive: 0,inactive: 0,inactive: 0,inactive: 0,inactive: 0,inactive: 0,inactive: 0,inactive: 0,0,0
O=C(CCc1ccc2n1[B-](F)(F)[N+]1=C(c3ccc[nH]3)C=CC1=C2)ON1C(=O)CCC1=O [Py-BODIPY-NHS ester] (2.5 µM),inactive: 0,inactive: 0,inactive: 0,inactive: 0,inactive: 0,inactive: 0,inactive: 0,inactive: 0,inactive: 0,inactive: 0,inactive: 0,inactive: 0,inactive: 0,inactive: 0,inactive: 0,inactive: 0,inactive: 0,inactive: 0,0,0
O=C1C(=Cc2ccc(O)c(O)c2)Oc2ccccc21 (2.5 µM),inactive: 0,inactive: 0,inactive: 0,inactive: 0,inactive: 0,inactive: 0,inactive: 0,inactive: 0,inactive: 0,inactive: 0,inactive: 0,inactive: 0,inactive: 0,inactive: 0,inactive: 0,inactive: 0,inactive: 0,inactive: 0,0,0
COc1ccc(C(=O)c2cn(C(C)C)c3ncnc(N)c23)cc1NC(=O)Nc1ccc(Cl)cc1Cl (10 µM),inactive: 0,inactive: 0,inactive: 0,inactive: 0,inactive: 0,inactive: 0,inactive: 0,inactive: 0,inactive: 0,inactive: 0,inactive: 0,inactive: 0,inactive: 0,inactive: 0,inactive: 0,inactive: 0,inactive: 0,inactive: 0,0,1
CS(=O)(=O)N1CCc2c(-c3cnc(N)nc3)nc(N3CCOCC3)nc21 (10 µM),inactive: 0,inactive: 0,inactive: 0,inactive: 0,inactive: 0,inactive: 0,inactive: 0,inactive: 0,inactive: 0,inactive: 0,inactive: 0,inactive: 0,inactive: 0,inactive: 0,inactive: 0,inactive: 0,inactive: 0,inactive: 0,0,0
Cc1ccc(CNC(=O)N2CCC[C@]3(CCN(Cc4ccc(Cl)c(Cl)c4)C3)C2)cc1 (10 µM),inactive: 0,inactive: 0,inactive: 0,inactive: 0,inactive: 0,inactive: 0,inactive: 0,inactive: 0,inactive: 0,inactive: 0,inactive: 0,inactive: 0,inactive: 0,inactive: 0,inactive: 0,inactive: 0,inactive: 0,inactive: 0,0,0
O=c1cc(-c2ccc(O)cc2)oc2cc(O)c(O)c(O)c12 [Scutellarein] (10 µM),inactive: 0,inactive: 0,inactive: 0,inactive: 0,inactive: 0,inactive: 0,inactive: 0,inactive: 0,inactive: 0,inactive: 0,inactive: 0,inactive: 0,inactive: 0,inactive: 0,inactive: 0,inactive: 0,inactive: 0,inactive: 0,0,0
COc1ncc2cc(C(=O)Nc3cc(C(=O)NCc4cccc(Cl)c4)ccc3Cl)c(=O)[nH]c2n1 (2.5 µM),inactive: 0,inactive: 0,inactive: 0,inactive: 0,inactive: 0,inactive: 0,inactive: 0,inactive: 0,inactive: 0,inactive: 0,inactive: 0,inactive: 0,inactive: 0,inactive: 0,inactive: 0,inactive: 0,inactive: 0,inactive: 0,0,0
O=C1c2cccc(O)c2C(=O)c2c(O)cccc21 [Danthron] (10 µM),inactive: 0,inactive: 0,inactive: 0,inactive: 0,inactive: 0,inactive: 0,inactive: 0,inactive: 0,inactive: 0,inactive: 0,inactive: 0,inactive: 0,inactive: 0,inactive: 0,inactive: 0,inactive: 0,inactive: 0,inactive: 0,0,0
C[C@@H](Nc1cc(F)cc(F)c1)c1cc(C(=O)N(C)C)cc2c(=O)cc(N3CCOCC3)oc12 (10 µM),inactive: 0,inactive: 0,inactive: 0,inactive: 0,inactive: 0,inactive: 0,inactive: 0,inactive: 0,inactive: 0,inactive: 0,inactive: 0,inactive: 0,inactive: 0,inactive: 0,inactive: 0,inactive: 0,inactive: 0,inactive: 0,0,0
O=S(=O)(c1cccc2c(Cl)cccc12)N1CCCNCC1 (10 µM),inactive: 0,inactive: 0,inactive: 0,inactive: 0,inactive: 0,inactive: 0,inactive: 0,inactive: 0,inactive: 0,inactive: 0,inactive: 0,inactive: 0,inactive: 0,inactive: 0,inactive: 0,inactive: 0,inactive: 0,inactive: 0,0,0
C[C@H](Nc1ccc2c(c1)OCCn1cc(N3C(=O)OC[C@H]3C(F)F)nc1-2)C(N)=O (10 µM),inactive: 0,inactive: 0,inactive: 0,inactive: 0,inactive: 0,inactive: 0,inactive: 0,inactive: 0,inactive: 0,inactive: 0,inactive: 0,inactive: 0,inactive: 0,inactive: 0,inactive: 0,inactive: 0,inactive: 0,inactive: 0,0,0
CC[C@@H]1CN(C(=O)NCC(F)(F)F)C[C@@H]1c1cnc2cnc3[nH]ccc3n12 [Upadacitinib] (10 µM),inactive: 0,inactive: 0,inactive: 0,inactive: 0,inactive: 0,inactive: 0,inactive: 0,inactive: 0,inactive: 0,inactive: 0,inactive: 0,inactive: 0,inactive: 0,inactive: 0,inactive: 0,inactive: 0,inactive: 0,inactive: 0,0,0
CC(C)(O)c1cc(Nc2cc(Oc3cn(C4CC4)nc3C3CCOCC3)ccn2)ccn1 (10 µM),inactive: 0,inactive: 0,inactive: 0,inactive: 0,inactive: 0,inactive: 0,inactive: 0,inactive: 0,inactive: 0,inactive: 0,inactive: 0,inactive: 0,inactive: 0,inactive: 0,inactive: 0,inactive: 0,inactive: 0,inactive: 0,0,0
C=CC(=O)Nc1cccc(Nc2nc(Nc3ccc(Oc4ccnc(C(=O)NC)c4)cc3)ncc2F)c1 (2.5 µM),inactive: 0,inactive: 0,inactive: 0,inactive: 0,inactive: 0,inactive: 0,inactive: 0,inactive: 0,inactive: 0,inactive: 0,inactive: 0,inactive: 0,inactive: 0,inactive: 0,inactive: 0,inactive: 0,inactive: 0,inactive: 0,0,0

# Record cards, as listed above. Values in the order: kinase-Nluc reporter destabilization hit call [1]	kinase-Nluc reporter destabilization hit call [2]	kinase-Nluc reporter destabilization hit call [3]	kinase-Nluc reporter destabilization hit call [4]	kinase-Nluc reporter destabilization hit call [5]	kinase-Nluc reporter destabilization hit call [6]	kinase-Nluc reporter destabilization hit call [7]	kinase-Nluc reporter destabilization hit call [8]	kinase-Nluc reporter destabilization hit call [9]	kinase-Nluc reporter destabilization hit call [10]	kinase-Nluc reporter destabilization hit call [11]	kinase-Nluc reporter destabilization hit call [12]	kinase-Nluc reporter destabilization hit call [13]	kinase-Nluc reporter destabilization hit call [14]	kinase-Nluc reporter destabilization hit call [15]	kinase-Nluc reporter destabilization hit call [16]	kinase-Nluc reporter destabilization hit call [17]	kinase-Nluc reporter destabilization hit call [18]	number of time points [19]	number of time points [20]
# `CC(C)n1cnnc1-c1cccc(NC(=O)c2cc3ccc(F)cc3[nH]2)n1` (2.5 µM) in the list: inactive: 0	inactive: 0	inactive: 0	inactive: 0	inactive: 0	inactive: 0	inactive: 0	inactive: 0	inactive: 0	inactive: 0	inactive: 0	inactive: 0	inactive: 0	inactive: 0	inactive: 0	inactive: 0	inactive: 0	inactive: 0	4	0
# `C[C@@H](Nc1cc(F)cc(F)c1)c1cc(C(=O)N(C)C)cc2c(=O)cc(N3CCOCC3)oc12` (10 µM) in the list: inactive: 0	inactive: 0	inactive: 0	inactive: 0	inactive: 0	inactive: 0	inactive: 0	inactive: 0	inactive: 0	inactive: 0	inactive: 0	inactive: 0	inactive: 0	inactive: 0	inactive: 0	inactive: 0	inactive: 0	inactive: 0	0	0
